The other results are listed elsewhere or left out. The data scatter; read single values as rough.
Legend:
[1] = compound: ClCC(=O)N[C@@H]1CCCc2ccccc12; experiment: log2 mean competition ratio of IA-DTB cysteine labelling (DMSO/compound) (log2 ratio); higher = stronger cysteine engagement by compound; conditions: treatment time: 4 h, cell line lysate: HEK293T
Description: (§1)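 IA-DTB competitive cysteine chemoproteomics in HEK293T RIPA lysate. Lysates were treated with compound 29 or 30 at 50 or 200 µM for 4 h, then IA-DTB (500 µM, 1 h), trypsin-digested, NeutrAvidin-enriched and analysed by diaPASEF. Competition ratio = intensity DMSO / intensity compound (n=4 treated, n=64 DMSO); binding: mean log2 CR ≥ 1 and p ≤ 0.05 plus QC filters. Target is the cysteine site.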

Sequences of proteins named here, by UniProt entry; tags and fusion partners are left off. A change or cut given only in a name is not applied to a line headed by its entry.
UniProt Q9Y259: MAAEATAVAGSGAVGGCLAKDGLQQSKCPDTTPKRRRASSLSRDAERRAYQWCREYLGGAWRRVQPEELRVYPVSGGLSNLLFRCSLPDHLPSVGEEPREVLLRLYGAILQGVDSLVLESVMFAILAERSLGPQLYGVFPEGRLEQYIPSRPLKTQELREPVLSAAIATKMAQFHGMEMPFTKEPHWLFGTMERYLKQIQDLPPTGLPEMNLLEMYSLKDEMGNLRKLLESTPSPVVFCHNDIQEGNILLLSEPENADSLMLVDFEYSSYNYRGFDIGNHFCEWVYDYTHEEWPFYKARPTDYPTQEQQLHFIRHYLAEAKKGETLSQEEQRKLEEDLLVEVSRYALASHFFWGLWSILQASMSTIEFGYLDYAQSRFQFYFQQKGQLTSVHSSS
UniProt O95639, whole entry, looked up: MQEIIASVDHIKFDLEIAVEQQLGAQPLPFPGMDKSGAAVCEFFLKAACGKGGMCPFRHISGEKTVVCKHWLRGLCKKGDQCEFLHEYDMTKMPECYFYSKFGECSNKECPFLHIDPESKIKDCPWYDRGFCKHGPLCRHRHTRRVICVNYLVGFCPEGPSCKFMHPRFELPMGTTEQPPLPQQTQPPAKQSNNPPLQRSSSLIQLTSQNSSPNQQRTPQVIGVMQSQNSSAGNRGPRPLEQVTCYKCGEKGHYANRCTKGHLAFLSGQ
UniProt Q96MW5: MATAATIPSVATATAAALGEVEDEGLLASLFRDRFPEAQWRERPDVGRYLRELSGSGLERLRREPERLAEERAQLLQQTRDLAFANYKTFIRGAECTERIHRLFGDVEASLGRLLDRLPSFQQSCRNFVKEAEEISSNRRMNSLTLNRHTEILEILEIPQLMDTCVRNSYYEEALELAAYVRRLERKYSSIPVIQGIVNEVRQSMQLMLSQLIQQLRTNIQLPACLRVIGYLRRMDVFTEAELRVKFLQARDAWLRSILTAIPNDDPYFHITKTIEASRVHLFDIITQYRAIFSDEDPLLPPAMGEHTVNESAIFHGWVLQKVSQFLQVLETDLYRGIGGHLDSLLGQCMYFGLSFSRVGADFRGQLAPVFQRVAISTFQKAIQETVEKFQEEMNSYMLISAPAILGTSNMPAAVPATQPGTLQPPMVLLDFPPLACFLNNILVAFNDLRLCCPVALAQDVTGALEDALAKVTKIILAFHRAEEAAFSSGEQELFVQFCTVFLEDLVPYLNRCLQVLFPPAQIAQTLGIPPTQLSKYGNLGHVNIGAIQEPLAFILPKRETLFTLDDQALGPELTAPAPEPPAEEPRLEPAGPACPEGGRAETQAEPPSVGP
UniProt Q9H9E3: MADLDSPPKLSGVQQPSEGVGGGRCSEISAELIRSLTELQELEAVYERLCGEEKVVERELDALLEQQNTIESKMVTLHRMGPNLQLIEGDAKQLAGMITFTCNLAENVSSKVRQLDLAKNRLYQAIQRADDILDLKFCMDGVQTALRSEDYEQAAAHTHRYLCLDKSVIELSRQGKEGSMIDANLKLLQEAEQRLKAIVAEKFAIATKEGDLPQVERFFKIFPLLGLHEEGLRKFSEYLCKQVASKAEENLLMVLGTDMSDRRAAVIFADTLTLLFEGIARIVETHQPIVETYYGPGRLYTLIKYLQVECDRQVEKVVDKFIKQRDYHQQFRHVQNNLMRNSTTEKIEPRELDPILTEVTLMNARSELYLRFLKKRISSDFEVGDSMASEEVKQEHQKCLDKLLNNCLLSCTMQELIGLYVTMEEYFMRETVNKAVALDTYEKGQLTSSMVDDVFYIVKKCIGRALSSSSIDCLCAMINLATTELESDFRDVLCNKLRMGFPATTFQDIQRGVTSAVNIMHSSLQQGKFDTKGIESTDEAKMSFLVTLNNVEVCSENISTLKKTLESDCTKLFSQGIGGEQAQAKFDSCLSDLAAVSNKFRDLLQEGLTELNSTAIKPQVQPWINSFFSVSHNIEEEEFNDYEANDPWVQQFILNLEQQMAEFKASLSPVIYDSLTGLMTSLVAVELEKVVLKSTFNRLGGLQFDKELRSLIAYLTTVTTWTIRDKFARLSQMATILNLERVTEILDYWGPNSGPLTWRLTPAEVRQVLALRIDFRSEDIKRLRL
UniProt Q9Y678: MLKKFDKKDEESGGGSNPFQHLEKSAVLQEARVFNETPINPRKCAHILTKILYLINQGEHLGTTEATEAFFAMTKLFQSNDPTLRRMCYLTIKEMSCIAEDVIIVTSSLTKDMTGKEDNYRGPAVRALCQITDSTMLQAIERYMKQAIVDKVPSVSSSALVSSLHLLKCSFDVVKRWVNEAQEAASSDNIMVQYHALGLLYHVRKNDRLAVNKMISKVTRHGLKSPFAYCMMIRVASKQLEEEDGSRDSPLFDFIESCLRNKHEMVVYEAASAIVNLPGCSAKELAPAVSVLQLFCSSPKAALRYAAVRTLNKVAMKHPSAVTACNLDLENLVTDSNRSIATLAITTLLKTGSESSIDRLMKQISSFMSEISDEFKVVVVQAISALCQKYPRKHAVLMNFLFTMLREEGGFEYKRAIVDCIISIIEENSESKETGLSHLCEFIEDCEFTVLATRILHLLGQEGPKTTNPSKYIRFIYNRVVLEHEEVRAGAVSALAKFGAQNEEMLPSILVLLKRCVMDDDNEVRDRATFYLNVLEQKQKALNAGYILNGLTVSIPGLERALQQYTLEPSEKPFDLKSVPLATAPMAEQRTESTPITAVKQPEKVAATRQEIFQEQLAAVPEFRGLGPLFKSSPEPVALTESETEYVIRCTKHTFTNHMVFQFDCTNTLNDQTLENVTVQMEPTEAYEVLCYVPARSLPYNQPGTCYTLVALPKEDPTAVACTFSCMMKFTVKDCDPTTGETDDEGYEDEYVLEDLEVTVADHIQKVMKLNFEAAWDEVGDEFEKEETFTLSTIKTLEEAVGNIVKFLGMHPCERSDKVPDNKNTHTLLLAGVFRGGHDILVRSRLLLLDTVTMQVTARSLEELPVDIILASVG
UniProt P21964: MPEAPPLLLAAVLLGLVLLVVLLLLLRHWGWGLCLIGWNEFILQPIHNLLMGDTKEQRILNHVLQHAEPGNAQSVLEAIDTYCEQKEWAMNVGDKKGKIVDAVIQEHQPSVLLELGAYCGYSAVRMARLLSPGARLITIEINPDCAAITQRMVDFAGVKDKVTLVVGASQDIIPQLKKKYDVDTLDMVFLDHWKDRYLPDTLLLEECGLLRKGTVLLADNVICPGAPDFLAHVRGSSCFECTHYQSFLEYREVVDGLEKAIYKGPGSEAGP
UniProt P24386: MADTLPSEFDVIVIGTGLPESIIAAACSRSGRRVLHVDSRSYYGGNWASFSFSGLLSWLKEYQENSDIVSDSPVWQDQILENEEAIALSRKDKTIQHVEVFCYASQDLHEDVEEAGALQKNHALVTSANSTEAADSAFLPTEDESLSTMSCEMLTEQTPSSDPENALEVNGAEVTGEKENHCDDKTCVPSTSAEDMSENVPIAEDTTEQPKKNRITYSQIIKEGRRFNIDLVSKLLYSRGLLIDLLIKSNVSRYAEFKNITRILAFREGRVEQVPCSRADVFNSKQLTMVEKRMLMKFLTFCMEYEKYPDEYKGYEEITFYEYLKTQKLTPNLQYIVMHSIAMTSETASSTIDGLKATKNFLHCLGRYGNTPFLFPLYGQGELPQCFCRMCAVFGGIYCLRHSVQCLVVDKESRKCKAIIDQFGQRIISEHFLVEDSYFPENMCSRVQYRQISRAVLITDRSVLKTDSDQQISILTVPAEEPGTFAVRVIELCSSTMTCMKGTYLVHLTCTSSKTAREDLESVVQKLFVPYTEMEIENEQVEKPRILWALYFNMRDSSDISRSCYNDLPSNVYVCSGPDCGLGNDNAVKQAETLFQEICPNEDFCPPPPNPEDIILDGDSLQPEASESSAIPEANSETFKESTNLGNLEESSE
UniProt Q9ULV3: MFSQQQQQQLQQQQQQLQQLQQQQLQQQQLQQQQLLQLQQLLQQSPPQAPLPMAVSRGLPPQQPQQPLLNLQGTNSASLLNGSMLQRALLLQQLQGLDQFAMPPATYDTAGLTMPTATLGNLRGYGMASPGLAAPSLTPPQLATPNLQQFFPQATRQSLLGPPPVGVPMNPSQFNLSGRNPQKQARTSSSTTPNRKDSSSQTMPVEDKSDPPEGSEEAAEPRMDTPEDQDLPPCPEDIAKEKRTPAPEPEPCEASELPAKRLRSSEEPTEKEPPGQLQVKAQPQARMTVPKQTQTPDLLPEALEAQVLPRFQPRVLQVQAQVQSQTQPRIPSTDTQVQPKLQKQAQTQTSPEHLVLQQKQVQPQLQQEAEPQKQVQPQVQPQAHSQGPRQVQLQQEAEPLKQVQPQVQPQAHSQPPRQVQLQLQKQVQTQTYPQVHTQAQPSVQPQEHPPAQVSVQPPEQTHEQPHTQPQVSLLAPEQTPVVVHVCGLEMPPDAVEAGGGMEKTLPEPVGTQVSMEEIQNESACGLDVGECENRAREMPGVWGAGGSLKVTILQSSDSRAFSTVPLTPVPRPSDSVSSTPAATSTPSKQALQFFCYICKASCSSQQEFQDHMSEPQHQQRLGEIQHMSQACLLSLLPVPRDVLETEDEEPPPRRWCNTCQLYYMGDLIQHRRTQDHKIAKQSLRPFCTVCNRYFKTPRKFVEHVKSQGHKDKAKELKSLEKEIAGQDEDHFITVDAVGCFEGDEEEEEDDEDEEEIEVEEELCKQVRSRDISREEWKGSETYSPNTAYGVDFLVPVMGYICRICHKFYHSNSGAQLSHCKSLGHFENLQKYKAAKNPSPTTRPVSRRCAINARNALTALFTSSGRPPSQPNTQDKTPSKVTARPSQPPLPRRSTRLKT
UniProt P50416: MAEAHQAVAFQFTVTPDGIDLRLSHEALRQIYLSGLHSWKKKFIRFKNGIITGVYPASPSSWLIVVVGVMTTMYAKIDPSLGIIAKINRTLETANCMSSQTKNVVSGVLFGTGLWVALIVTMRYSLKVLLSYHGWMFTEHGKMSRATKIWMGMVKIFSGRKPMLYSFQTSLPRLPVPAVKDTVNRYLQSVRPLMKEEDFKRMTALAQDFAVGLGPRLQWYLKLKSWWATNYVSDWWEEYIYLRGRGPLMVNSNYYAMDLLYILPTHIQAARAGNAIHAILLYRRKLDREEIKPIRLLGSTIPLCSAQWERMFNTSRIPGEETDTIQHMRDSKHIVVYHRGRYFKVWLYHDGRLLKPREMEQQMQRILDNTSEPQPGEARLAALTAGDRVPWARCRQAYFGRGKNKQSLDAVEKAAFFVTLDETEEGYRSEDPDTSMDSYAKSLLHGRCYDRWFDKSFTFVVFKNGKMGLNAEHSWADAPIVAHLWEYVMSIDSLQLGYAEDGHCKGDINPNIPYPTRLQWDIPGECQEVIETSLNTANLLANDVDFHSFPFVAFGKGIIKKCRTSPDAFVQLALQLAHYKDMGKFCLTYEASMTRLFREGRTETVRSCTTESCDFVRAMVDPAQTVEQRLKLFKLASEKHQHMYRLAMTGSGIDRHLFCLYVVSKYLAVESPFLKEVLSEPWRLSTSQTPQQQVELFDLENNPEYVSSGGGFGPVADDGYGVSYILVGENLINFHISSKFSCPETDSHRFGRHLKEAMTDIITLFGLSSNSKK
UniProt Q96D53: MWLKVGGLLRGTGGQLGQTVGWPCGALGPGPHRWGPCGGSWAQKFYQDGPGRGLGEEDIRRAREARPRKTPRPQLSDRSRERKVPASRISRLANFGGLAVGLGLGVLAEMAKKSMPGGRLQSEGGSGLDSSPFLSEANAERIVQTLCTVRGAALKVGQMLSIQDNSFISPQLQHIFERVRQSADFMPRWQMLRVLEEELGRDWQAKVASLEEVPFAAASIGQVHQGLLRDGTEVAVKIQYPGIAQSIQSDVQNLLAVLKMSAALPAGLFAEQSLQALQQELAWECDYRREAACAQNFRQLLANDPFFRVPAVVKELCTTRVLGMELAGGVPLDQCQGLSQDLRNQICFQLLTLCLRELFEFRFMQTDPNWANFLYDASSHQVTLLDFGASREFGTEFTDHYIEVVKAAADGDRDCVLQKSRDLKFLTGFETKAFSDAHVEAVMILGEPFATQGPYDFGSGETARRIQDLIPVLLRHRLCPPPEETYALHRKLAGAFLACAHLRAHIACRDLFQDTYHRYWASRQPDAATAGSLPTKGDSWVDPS
UniProt P14854: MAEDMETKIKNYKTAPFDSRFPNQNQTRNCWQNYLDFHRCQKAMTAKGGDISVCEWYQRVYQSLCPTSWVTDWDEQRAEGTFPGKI

[2] = compound: ClCC(=O)N[C@H]1CCCc2ccccc12; experiment: as above; conditions: treatment time: 4 h, cell line lysate: HEK293T
Description: as §1

CORO1C C420 (UniProt Q9ULV4)
log2 mean competition ratio ([1]; 50 µM): -0.0485 | log2 mean competition ratio ([1]; 200 µM): 0.643 | log2 mean competition ratio ([2]; 50 µM): 0.25 | log2 mean competition ratio ([2]; 200 µM): 0.427

CHKB C17 (UniProt Q9Y259)
log2 mean competition ratio ([1]; 50 µM): -0.271 | log2 mean competition ratio ([1]; 200 µM): 0.232 | log2 mean competition ratio ([2]; 50 µM): -0.547 | log2 mean competition ratio ([2]; 200 µM): 0.248

CNKSR3 C171
log2 mean competition ratio ([1]; 50 µM): 0.273 | log2 mean competition ratio ([1]; 200 µM): -0.572 | log2 mean competition ratio ([2]; 50 µM): 0.13 | log2 mean competition ratio ([2]; 200 µM): -0.31

CPSF4 C41 (UniProt O95639)
log2 mean competition ratio ([1]; 50 µM): 0.134 | log2 mean competition ratio ([1]; 200 µM): -0.178 | log2 mean competition ratio ([2]; 50 µM): -0.145 | log2 mean competition ratio ([2]; 200 µM): 0.126

COG8 C595 (UniProt Q96MW5)
log2 mean competition ratio ([1]; 50 µM): -0.0384 | log2 mean competition ratio ([1]; 200 µM): -0.168 | log2 mean competition ratio ([2]; 50 µM): 0.0417 | log2 mean competition ratio ([2]; 200 µM): -0.18

COG4 C569 (UniProt Q9H9E3)
log2 mean competition ratio ([1]; 50 µM): -0.135 | log2 mean competition ratio ([1]; 200 µM): 0.205 | log2 mean competition ratio ([2]; 50 µM): -0.0744 | log2 mean competition ratio ([2]; 200 µM): 0.242

COPG1 C813 (UniProt Q9Y678)
log2 mean competition ratio ([1]; 50 µM): -0.0302 | log2 mean competition ratio ([1]; 200 µM): -0.0654 | log2 mean competition ratio ([2]; 50 µM): -0.246 | log2 mean competition ratio ([2]; 200 µM): -0.0603

CMIP C455 (UniProt Q8IY22)
log2 mean competition ratio ([1]; 50 µM): -0.0422 | log2 mean competition ratio ([1]; 200 µM): 0.0712 | log2 mean competition ratio ([2]; 50 µM): -0.506 | log2 mean competition ratio ([2]; 200 µM): 0.0803

COMT C145 (UniProt P21964)
log2 mean competition ratio ([1]; 50 µM): -0.382 | log2 mean competition ratio ([1]; 200 µM): 0.187 | log2 mean competition ratio ([2]; 50 µM): -0.53 | log2 mean competition ratio ([2]; 200 µM): -0.0577

CHM C276 (UniProt P24386)
log2 mean competition ratio ([1]; 50 µM): -0.202 | log2 mean competition ratio ([1]; 200 µM): -0.424 | log2 mean competition ratio ([2]; 50 µM): 0.0732 | log2 mean competition ratio ([2]; 200 µM): -0.158

CIZ1 C234 (UniProt Q9ULV3)
log2 mean competition ratio ([1]; 50 µM): 0.141 | log2 mean competition ratio ([1]; 200 µM): -0.098 | log2 mean competition ratio ([2]; 50 µM): -0.12 | log2 mean competition ratio ([2]; 200 µM): 0.406

CHD4 C396
log2 mean competition ratio ([1]; 50 µM): -0.223 | log2 mean competition ratio ([1]; 200 µM): -0.0764 | log2 mean competition ratio ([2]; 50 µM): -0.562 | log2 mean competition ratio ([2]; 200 µM): -0.0842

CPT1A C96 (UniProt P50416)
log2 mean competition ratio ([1]; 50 µM): 0.0251 | log2 mean competition ratio ([1]; 200 µM): 0.0069 | log2 mean competition ratio ([2]; 50 µM): -0.0475 | log2 mean competition ratio ([2]; 200 µM): 0.105

COQ8B C293 (UniProt Q96D53)
log2 mean competition ratio ([1]; 50 µM): -0.0221 | log2 mean competition ratio ([1]; 200 µM): 0.092 | log2 mean competition ratio ([2]; 50 µM): 0.322 | log2 mean competition ratio ([2]; 200 µM): 0.0814

COX6B1 C54 (UniProt P14854)
log2 mean competition ratio ([1]; 50 µM): 0.113 | log2 mean competition ratio ([1]; 200 µM): 0.155 | log2 mean competition ratio ([2]; 50 µM): 0.658 | log2 mean competition ratio ([2]; 200 µM): 0.329

Reference: the supplement of paper PMC11732987, “Enantioselective OTUD7B fragment discovery through chemoproteomics screening and high-throughput optimisation” (Communications Chemistry, 2025)
